According to patent US5994359A, “Imino oxyphenyl acetic acid derivatives, methods and intermediates for their preparation and use thereof” (BASF Aktiengesellschaft, priority 1995, dated 1999):
At least one compound was matched to its structure with a doubt left.

System: mitochondria of the yeast Saccharomyces cerevisiae
Test: Inhibition of mitochondrial respiration (photometric cytochrome c reduction rate in isolated mitochondria)
Type: biochemical
Conditions: Saccharom. cerevisiae mitochondria
Text: To determine the effect of the compounds according to the invention on mitochondrial respiration, it is first necessary to isolate the mitochondria from the test organisms. In the case of the yeast Saccharomyces cerevisiae, a 30 to 40% cell suspension of the fungus is disrupted, to this end, in an aqueous solution of 0.6 M Mannitol+0.01 M tris[hydroxymethyl]aminomethane+0.002 M disodium ethylenediaminetetraacetate (pH 6.8) using a glass bead mill, and the extract is fractionated by means of differential centrifugation at 1000×g and 12000×g. The mitochondria are in the precipitate of the 12000×g centrifugation.
The effect of the compounds on the respiration chain is determined by adding a solution of the test compound in dimethyl sulfoxide to a suspension of mitochondria in an aqueous solution of 0.01 M tris[hydroxymethyl]aminomethane+0.65 M sorbitol+0.01 M KH2 PO4 +0.01 M KCl+0.0004 M disodium ethylenediamine-tetraacetate+0.3% bovine serum albumin+0.0007 M KCN+6×10^-6 ubiquinone-50+0.01 M sodium succinate+0.15% cytochrome c (pH 7.5), and the reduction rate of the cytochrome c is determined photometrically on the basis of the increased absorption at 546 nm. A batch with a corresponding amount of pure DMSO is used as control. The inhibitory value for the active ingredient at the concentration shown in each case is then calculated as follows. […]

COC=C(C(=O)OC)c1ccccc1ON=C(C)C(C)=NOC [I(2).7, methyl 3-methoxy-[2-(2-methoxyimino-1-methyl-propylideneaminooxy)phenyl]acrylate]
IC50 (cytochrome c reduction at 546 nm, read-out: I50 (concentration of test substance where a 50% inhibition of mitochondrial respiration is observed)): 3.3 nM | F value (relative value) (relative to reference substance enol ether stilbene): 0.14
